This note sets out measurements from patent US6436636B1, “Methods for identifying pharmacologicals for the treatment of heart failure” (Wake Forest University, priority 1995, dated 2002).

Construct, isoform or probe ends are uncertain for at least one entry. Results from cells or extracts need not show a direct contact.

In this data set the test system is beta-ARB (Mr 38,000 protein in ribosomal salt wash of DDT1-MF2 cells). Put plainly: binding assay. Conditions: 5'-cap; UV-crosslinking, 22 C, yeast tRNA and heparin; self-competed at 10-50-fold excess; protein in an extract; label: 32P-UTP uniform.

Turning to “AGGGCCCGGCGCGGGGCGCGGACCCGGGCACGGCCCCAGGGGAACGAGGAGACGGACAAGACCGAAGCAGGGAACCGAAGCCCACAACCCGCGAACACCGAGGCAAAGAGAAAAGCCACGGACCGGCACAAAAAGGAAAGGGGAAGGGAGGGAGAGGGCGCGAGCCGGCCCCCCCGGGGCCGGCCCGGGGCGGGAGCACAGACCCCCACCAGGGGGCACACCCGAGAGGACCGGAGGGAAGAGGGGGGAGGGGAAGGGAGAAGCAAGGGAGGCAAAAACGACACGCCGACCCACCCCCCGGGAACAGGAACACACACCGACCAGAGAGAGGAGAAGACAGGCAAGACAACCGCCCAGAGAAACAAACAAGAAGACGCGAGAAAGCAAAGAGAAAGGAGGAGGCAAAAAAAAAAAAACACGCAAGAAAGAAGCCCGGAACAAGCCCCACCGCCCGGAGGGCAAACCCGCGCCCCCGCGCGCCGGGGGCAGGCGAGGGACACCCACACGGCAGCACAGCAGAAGAAAGACGAAAAACAGCAAGACAAAAGGGAAGGACCAGGCGCAGAGCCCCCGGACAGGACCGCAAGAAGACAGGACAAAAAGAGAGCAGAGAGAGAGAAACAGCAGAACGCACAGGGAAAAAACAAAAAAGACAAGCAGCGACAGAG [human beta1-AR 3'UTR RNA]”, the binding result is given as “binds”.
